Measured values published in publication PMC12071843.

Chains of the proteins cited; added tags and fusions are not shown. Lines headed by an entry give the natural chain unless they say otherwise; changes in a name come on top.
UniProt P08254: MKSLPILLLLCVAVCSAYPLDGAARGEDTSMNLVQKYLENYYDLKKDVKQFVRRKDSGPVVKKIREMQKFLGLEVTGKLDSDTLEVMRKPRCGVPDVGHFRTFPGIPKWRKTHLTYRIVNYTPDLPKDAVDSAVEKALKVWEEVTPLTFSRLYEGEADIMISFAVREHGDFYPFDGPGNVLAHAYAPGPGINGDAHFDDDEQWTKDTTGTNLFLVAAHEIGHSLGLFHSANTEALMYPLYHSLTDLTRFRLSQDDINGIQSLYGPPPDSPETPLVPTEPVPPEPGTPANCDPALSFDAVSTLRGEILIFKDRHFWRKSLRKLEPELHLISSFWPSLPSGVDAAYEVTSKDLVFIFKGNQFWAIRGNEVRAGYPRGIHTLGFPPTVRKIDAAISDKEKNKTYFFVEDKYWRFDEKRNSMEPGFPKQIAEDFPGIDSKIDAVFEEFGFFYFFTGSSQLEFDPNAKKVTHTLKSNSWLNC

target: Matrix metalloproteinase 3 (human (endogenous in OVCAR3CIS)) (UniProt P08254); assay: affinity purification with mass spectrometry; intracellular MMP3: protein of serum-free OVCAR3CIS cells, untreated or cisplatin-treated, pre-cleared on protein A/G magnetic beads, anti-MMP3 antibody (Abcam) 10 ug/200 ug protein at 4 °C overnight, protein A/G magnetic beads (Pierce MS-compatible Magnetic IP Kit), eluate by LC-MS/MS; listed proteins consistent in at least two replicates

| binding | Binder |
| --- | --- |
| binds | WD repeat and FYVE domain-containing protein 1 (protein, UniProt Q8IWB7 1-410) MAAEIHSRPQSSRPVLLSKIEGHQDAVTAALLIPKEDGVITASEDRTIRVWLKRDSGQYWPSIYHTMASPCSAMAYHHDSRRIFVGQDNGAVMEFHVSEDFNKMNFIKTYPAHQNRVSAIIFSLATEWVISTGHDKCVSWMCTRSGNMLGRHFFTSWASCLQYDFDTQYAFVGDYSGQITLLKLEQNTCSVITTLKGHEGSVACLWWDPIQRLLFSGASDNSIIMWDIGGRKGRTLLLQGHHDKVQSLCYLQLTRQLVSCSSDGGIAVWNMDVSREEAPQWLESDSCQKCEQPFFWNIKQMWDTKTLGLRQHHCRKCGQAVCGKCSSKRSSYPVMGFEFQVRVCDSCYDSIKDEDRTSLATFHEGKHNISHMSMDIARGLMVTCGTDRIVKIWDMTPVVGCSLATGFSPH |
| binds | Barrier-to-autointegration factor (protein, UniProt O75531 1-89) MTTSQKHRDFVAEPMGEKPVGSLAGIGEVLGKKLEERGFDKAYVVLGQFLVLKKDEDLFREWLKDTCGANAKQSRDCFGCLREWCDAFL |

target: Matrix metalloproteinase 3 (human (endogenous in OVCAR3CIS)) (UniProt P08254); assay: affinity purification with mass spectrometry; extracellular MMP3: supernatants of serum-free OVCAR3CIS cells, untreated or cisplatin-treated, pre-cleared on protein A/G magnetic beads, anti-MMP3 antibody (Abcam) 10 ug/200 ug protein at 4 °C overnight, protein A/G magnetic beads (Pierce MS-compatible Magnetic IP Kit), eluate by LC-MS/MS

| Binder | binding |
| --- | --- |
| E3 ubiquitin-protein ligase TRIM41 (protein, UniProt Q8WV44 1-630) MAAVAMTPNPVQTLQEEAVCAICLDYFTDPVSIGCGHNFCRVCVTQLWGGEDEEDRDELDREEEEEDGEEEEVEAVGAGAGWDTPMRDEDYEGDMEEEVEEEEEGVFWTSGMSRSSWDNMDYVWEEEDEEEDLDYYLGDMEEEDLRGEDEEDEEEVLEEVEEEDLDPVTPLPPPPAPRRCFTCPQCRKSFPRRSFRPNLQLANMVQVIRQMHPTPGRGSRVTDQGICPKHQEALKLFCEVDEEAICVVCRESRSHKQHSVVPLEEVVQEYKAKLQGHVEPLRKHLEAVQKMKAKEERRVTELKSQMKSELAAVASEFGRLTRFLAEEQAGLERRLREMHEAQLGRAGAAASRLAEQAAQLSRLLAEAQERSQQGGLRLLQDIKETFNRCEEVQLQPPEVWSPDPCQPHSHDFLTDAIVRKMSRMFCQAARVDLTLDPDTAHPALMLSPDRRGVRLAERRQEVADHPKRFSADCCVLGAQGFRSGRHYWEVEVGGRRGWAVGAARESTHHKEKVGPGGSSVGSGDASSSRHHHRRRRLHLPQQPLLQREVWCVGTNGKRYQAQSSTEQTLLSPSEKPRRFGVYLDYEAGRLGFYNAETLAHVHTFSAAFLGERVFPFFRVLSKGTRIKLCP | binds |
| ATP-dependent DNA helicase Q4 (protein, UniProt O94761 1-1208) MERLRDVRERLQAWERAFRRQRGRRPSQDDVEAAPEETRALYREYRTLKRTTGQAGGGLRSSESLPAAAEEAPEPRCWGPHLNRAATKSPQSTPGRSRQGSVPDYGQRLKANLKGTLQAGPALGRRPWPLGRASSKASTPKPPGTGPVPSFAEKVSDEPPQLPEPQPRPGRLQHLQASLSQRLGSLDPGWLQRCHSEVPDFLGAPKACRPDLGSEESQLLIPGESAVLGPGAGSQGPEASAFQEVSIRVGSPQPSSSGGEKRRWNEEPWESPAQVQQESSQAGPPSEGAGAVAVEEDPPGEPVQAQPPQPCSSPSNPRYHGLSPSSQARAGKAEGTAPLHIFPRLARHDRGNYVRLNMKQKHYVRGRALRSRLLRKQAWKQKWRKKGECFGGGGATVTTKESCFLNEQFDHWAAQCPRPASEEDTDAVGPEPLVPSPQPVPEVPSLDPTVLPLYSLGPSGQLAETPAEVFQALEQLGHQAFRPGQERAVMRILSGISTLLVLPTGAGKSLCYQLPALLYSRRSPCLTLVVSPLLSLMDDQVSGLPPCLKAACIHSGMTRKQRESVLQKIRAAQVHVLMLTPEALVGAGGLPPAAQLPPVAFACIDEAHCLSQWSHNFRPCYLRVCKVLRERMGVHCFLGLTATATRRTASDVAQHLAVAEEPDLHGPAPVPTNLHLSVSMDRDTDQALLTLLQGKRFQNLDSIIIYCNRREDTERIAALLRTCLHAAWVPGSGGRAPKTTAEAYHAGMCSRERRRVQRAFMQGQLRVVVATVAFGMGLDRPDVRAVLHLGLPPSFESYVQAVGRAGRDGQPAHCHLFLQPQGEDLRELRRHVHADSTDFLAVKRLVQRVFPACTCTCTRPPSEQEGAVGGERPVPKYPPQEAEQLSHQAAPGPRRVCMGHERALPIQLTVQALDMPEEAIETLLCYLELHPHHWLELLATTYTHCRLNCPGGPAQLQALAHRCPPLAVCLAQQLPEDPGQGSSSVEFDMVKLVDSMGWELASVRRALCQLQWDHEPRTGVRRGTGVLVEFSELAFHLRSPGDLTAEEKDQICDFLYGRVQARERQALARLRRTFQAFHSVAFPSCGPCLEQQDEERSTRLKDLLGRYFEEEEGQEPGGMEDAQGPEPGQARLQDWEDQVRCDIRQFLSLRPEEKFSSRAVARIFHGIGSPCYPAQVYGQDRRFWRKYLHLSFHALVGLATEELLQVAR | binds |

Second part, the binder after the results:

| binding | Binder |
| --- | --- |
| binds | Sorbin and SH3 domain-containing protein 1 (protein, UniProt Q9BX66 1-1292) MSSECDGGSKAVMNGLAPGSNGQDKATADPLRARSISAVKIIPVKTVKNASGLVLPTDMDLTKICTGKGAVTLRASSSYRETPSSSPASPQETRQHESKPGLEPEPSSADEWRLSSSADANGNAQPSSLAAKGYRSVHPNLPSDKSQDATSSSAAQPEVIVVPLYLVNTDRGQEGTARPPTPLGPLGCVPTIPATASAASPLTFPTLDDFIPPHLQRWPHHSQPARASGSFAPISQTPPSFSPPPPLVPPAPEDLRRVSEPDLTGAVSSTDSSPLLNEVSSSLIGTDSQAFPSVSKPSSAYPSTTIVNPTIVLLQHNREQQKRLSSLSDPVSERRVGEQDSAPTQEKPTSPGKAIEKRAKDDSRRVVKSTQDLSDVSMDEVGIPLRNTERSKDWYKTMFKQIHKLNRDTPEENPYFPTYKFPELPEIQQTSEEDNPYTPTYQFPASTPSPKSEDDDSDLYSPRYSFSEDTKSPLSVPRSKSEMSYIDGEKVVKRSATLPLPARSSSLKSSSERNDWEPPDKKVDTRKYRAEPKSIYEYQPGKSSVLTNEKMSRDISPEEIDLKNEPWYKFFSELEFGKPPPKKIWDYTPGDCSILPREDRKTNLDKDLSLCQTELEADLEKMETLNKAPSANVPQSSAISPTPEISSETPGYIYSSNFHAVKRESDGAPGDLTSLENERQIYKSVLEGGDIPLQGLSGLKRPSSSASTKDSESPRHFIPADYLESTEEFIRRRHDDKEKLLADQRRLKREQEEADIAARRHTGVIPTHHQFITNERFGDLLNIDDTAKRKSGSEMRPARAKFDFKAQTLKELPLQKGDIVYIYKQIDQNWYEGEHHGRVGIFPRTYIELLPPAEKAQPKKLTPVQVLEYGEAIAKFNFNGDTQVEMSFRKGERITLLRQVDENWYEGRIPGTSRQGIFPITYVDVIKRPLVKNPVDYMDLPFSSSPSRSATASPQFSSHSKLITPAPSSLPHSRRALSPEMHAVTSEWISLTVGVPGRRSLALTPPLPPLPEASIYNTDHLALSPRASPSLSLSLPHLSWSDRPTPRSVASPLALPSPHKTYSLAPTSQASLHMNGDGGVHTPSSGIHQDSFLQLPLGSSDSVISQLSDAFSSQSKRQPWREESGQYERKAERGAGERGPGGPKISKKSCLKPSDVVRCLSTEQRLSDLNTPEESRPGKPLGSAFPGSEAEQTERHRGGEQAGRKAARRGGSQQPQAQQRRVTPDRSQTSQDLFSYQALYSYIPQNDDELELRDGDIVDVMEKCDDGWFVGTSRRTKQFGTFPGNYVKPLYL |
| binds | Isoform 2 of Embryonic polyadenylate-binding protein 2 (protein, UniProt A6NDY0-2 1-255) MWPFPSRSLFPPPTQAWLQTVSSDPEAQGWGAWNETKEILGPEGGEGKEEKEEEEDAEEDQDGDAGFLLSLLEQENLAECPLPDQELEAIKMKVCAMEQAEGTPRPPGVQQQAEEEEGTAAGQLLSPETVGCPLSGTPEEKVEADHRSVYVGNVDYGGSAEELEAHFSRCGEVHRVTILCDKFSGHPKGCCRKEPTSLGSAPQTAGAFEDTQAPGGHPSPTAASRAGPGSDHKGRTGPVENSHHGFHRIKGKTRF |
| binds | Small integral membrane protein 35 (protein, UniProt A0A1B0GVV1 1-85) MTGEDSISTLGLILGVGLLLLLVSILGYSLAKWYQRGYCWEGPNFVFNLYQIRNLKDLEMGPPFTISGHISSTDGGYMKFSNGLV |

Results are given in words; binding and its absence hold for the method and conditions named. In cells and extracts the contact can be indirect. Here binding means that the protein was enriched with, or labelled near, the bait; the list need not be complete.
